The record followed here is PubChem BioAssay AID493014 (National Center for Advancing Translational Sciences (NCATS), 2011).

The assay in a line: qHTS Assay to Find Inhibitors of Chronic Active B-Cell Receptor Signaling. As to conditions: ABC-DLBCL IkBa-CBG/CBR reporter, luminescence ratio (green luciferase fused to IkBa over red control in TMD8 lymphoma cells), 4 h. The method, boiled down: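 Concentration-response series (up to 46 uM) were applied to TMD8 dual-reporter cells for 4 h at 37C with doxycycline. Green/red ratio, after filter-overlap correction, defined %Activity; red signal alone was normalised to basal cells and zero luminescence.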
For orientation: In qHTS, concentration-response curves come from the screen itself.

The mark [1] stands for this setting: measured here: CBR red luminescence, cell number.
[2] abbreviates: measured here: IkBa-CBG green luminescence.

SMILES strings stand for the structures. This is one part of the list. The main result of the screen is listed elsewhere. These columns were measured beside it and carry no call. Most of these compounds were active or inconclusive in the main read-out, so they are no random draw. The note in brackets gives the kind of curve behind each potency; many fits are weak.

In general, AC50 refers to the concentration at which the activity in the assay is half-maximal. As for `COc1ccc(N(Cc2cc3ccccc3[nH]c2=O)S(=O)(=O)c2ccccc2)cc1`, under setting [1], the AC50 was 28.2 µM [falling, single point].

For `CC(C)(C)[C@@H]1CCC(=O)N(CC[C@H](Sc2ccccc2)c2ccccc2)CC1`, the AC50 under setting [2] is 15.8 µM [rising, single point].

Turning to `O=C(NC(=S)N1CCOCC1)c1ccc([N+](=O)[O-])cc1`, the AC50 under setting [2] was 25.9 µM [falling, single point].

`COc1ccc(NC(=O)c2ccccc2Sc2ccc(NC(C)=O)nc2)cc1`: the AC50 under setting [1] is 10 µM [falling, partial curve, poor fit].

Take `N#C/C(=C\c1cccnc1)C(=O)Nc1ccc(C(=O)O)cc1`: the AC50 under setting [1] was 8.91 µM [falling, partial curve].

In the case of `CC1=C(C#N)C(=O)NC(C)(C)C1`, the AC50 under setting [1] was 4.61 µM [rising, full curve, poor fit].

Consider `Cc1[nH]c2ccccc2c1-c1nc2ccccc2[nH]1`, for which the AC50 under setting [1] is 1.26 µM [falling, partial curve, poor fit].

Turning to `O=C(CCNC(=O)c1ccc(Br)cc1)Nc1cccc(S(=O)(=O)N2CCCCCC2)c1`, under setting [1], the AC50 was 20.6 µM [falling, single point].

As for `O=C(NCCc1ccccc1)NC(Cc1ccccc1)C(=O)O` (stereo not drawn), under setting [1], the AC50 is 11.2 µM [rising, partial curve, poor fit].

For the molecule `Cc1nc(Nc2cccc(O)c2)c2c3c(sc2n1)CCC3`, under setting [1], the AC50 is 0.316 µM [rising, full curve, poor fit].

As for `O=C(Nc1ccc(Br)cn1)c1coc(=O)c(Br)c1`, the concentration at half-maximal activity (AC50) under setting [1] was 10 µM [falling, partial curve, poor fit].

Consider `O=C(Nc1c(F)cc(F)cc1Br)c1cc(-c2ccc(O)cc2)on1`, for which the AC50 under setting [1] was 0.631 µM [falling, full curve, poor fit].

`C=CCOc1ccc(/C=C/C(=O)OCC(=O)N2CCC(c3ccccc3)=N2)cc1`: under setting [1], the AC50 was 11.6 µM [rising, partial curve, poor fit].

On to `O=C(Nc1ccccc1)N1CCc2ccccc2C1`, for which the AC50 under setting [1] was 1.64 µM [falling, full curve].

For the molecule `c1ccc(CSc2ncnc3c2cnn3Cc2ccccc2)cc1`, under setting [1], the AC50 is 18.4 µM [rising, partial curve, poor fit].

Regarding `O=C(O)c1cccc(NN=C2c3ccccc3-c3ccccc32)c1`, the AC50 under setting [1] is 14.1 µM [falling, partial curve].

As to `CCN(CC)C(=O)c1ccc(C(=O)Nc2ccc(F)cc2)cc1`, under setting [1], the concentration at half-maximal activity (AC50) is 18.4 µM [falling, single point].

Turning to `CN(C)c1ccc(/C=C/c2nc3ccccc3c(=O)[nH]2)cc1`, the AC50 under setting [1] was 3.98 µM [falling, single point].
